Assay results reported in the supplement of paper PMC7661543.
± gives the standard deviation of the averaged measurements. Differences between knockout arms are mostly noise.

Test system: MDA-MB-231
Test: relative cell number vs DMSO control (72 h) (% of DMSO); higher = less growth inhibition (more cells)
Method: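 QMAP-Seq: a pool of 5 breast cancer cell lines (ZR-75-1, SKBR3, HCC-38, MDA-MB-231, BT-20), each carrying 12 doxycycline-inducible Cas9 sgRNA perturbations (11 knockouts plus non-targeting sgNT), was treated with compounds for 72 h at four 10-fold doses (10 nM-10 uM or 1 nM-1 uM range). Barcodes were amplified and sequenced, and cell number was interpolated from 293T spike-in standard curves. The result is expressed as % of the median of DMSO wells. Two biological replicates.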

[1] = sgRNA knockout: sgATF3, 1000 nM
[2] = sgRNA knockout: sgATF3, 10000 nM
[3] = sgRNA knockout: sgATF4, 1000 nM
[4] = sgRNA knockout: sgATF4, 10000 nM
[5] = sgRNA knockout: sgATF6, 1000 nM
[6] = sgRNA knockout: sgATF6, 10000 nM
[7] = sgRNA knockout: sgATG7, 1000 nM
[8] = sgRNA knockout: sgATG7, 10000 nM
[9] = sgRNA knockout: sgERN1, 1000 nM
[10] = sgRNA knockout: sgERN1, 10000 nM
[11] = sgRNA knockout: sgHSF1, 1000 nM
[12] = sgRNA knockout: sgHSF1, 10000 nM
[13] = sgRNA knockout: sgHSF2, 1000 nM
[14] = sgRNA knockout: sgHSF2, 10000 nM
[15] = sgRNA knockout: sgKEAP1, 100 nM
[16] = sgRNA knockout: sgKEAP1, 1000 nM
[17] = sgRNA knockout: sgKEAP1, 10000 nM
[18] = sgRNA knockout: sgNFE2L2, 10 nM
[19] = sgRNA knockout: sgNFE2L2, 100 nM
[20] = sgRNA knockout: sgNFE2L2, 1000 nM
[21] = sgRNA knockout: sgNFE2L2, 10000 nM
[22] = sgRNA knockout: sgSLC35F2, 10 nM
[23] = sgRNA knockout: sgSLC35F2, 100 nM
[24] = sgRNA knockout: sgSLC35F2, 1000 nM
[25] = sgRNA knockout: sgSLC35F2, 10000 nM
[26] = sgRNA knockout: sgXBP1, 1000 nM
[27] = sgRNA knockout: sgXBP1, 10000 nM

In the case of C[C@]1(c2nc3c(C(N)=O)cccc3[nH]2)CCCN1 [Veliparib], the relative cell number (sgRNA knockout: sgATF3, 10 nM) is reported as 120 ± 14, the relative cell number (sgRNA knockout: sgATF3, 100 nM) is reported as 123 ± 9.9 and the relative cell number [1] is reported as 93 ± 7.1. It also gave a relative cell number [2] of 81.4 ± 3.1, a relative cell number (sgRNA knockout: sgATF4, 10 nM) of 161 ± 70 and a relative cell number (sgRNA knockout: sgATF4, 100 nM) of 160 ± 1.9. It also gave a relative cell number [3] of 123 ± 64, a relative cell number [4] of 106 ± 7.4 and a relative cell number (sgRNA knockout: sgATF6, 10 nM) of 95.7 ± 5.9. The relative cell number (sgRNA knockout: sgATF6, 100 nM) was 113 ± 20, the relative cell number [5] was 82 ± 19 and the relative cell number [6] was 77.6 ± 3.2. It also gave a relative cell number (sgRNA knockout: sgATG7, 10 nM) of 121 ± 41, a relative cell number (sgRNA knockout: sgATG7, 100 nM) of 133.8 ± 1.2 and a relative cell number [7] of 96.9 ± 5.8. It also gave a relative cell number [8] of 89.4 ± 3, a relative cell number (sgRNA knockout: sgERN1, 10 nM) of 137 ± 58 and a relative cell number (sgRNA knockout: sgERN1, 100 nM) of 105.69 ± 0.09. It also gave a relative cell number [9] of 98.5 ± 41, a relative cell number [10] of 85.9 ± 3.2 and a relative cell number (sgRNA knockout: sgHSF1, 10 nM) of 115.1 ± 0.34. For the same compound, the relative cell number (sgRNA knockout: sgHSF1, 100 nM) was 112 ± 27, the relative cell number [11] was 86.7 ± 9.5 and the relative cell number [12] was 85 ± 1.9. It also gave a relative cell number (sgRNA knockout: sgHSF2, 10 nM) of 120 ± 28, a relative cell number (sgRNA knockout: sgHSF2, 100 nM) of 114 ± 16 and a relative cell number [13] of 99.1 ± 15. For the same compound, the relative cell number [14] was 75.5 ± 5.7, the relative cell number (sgRNA knockout: sgKEAP1, 10 nM) was 114 ± 18 and the relative cell number [15] was 121 ± 33. For the same compound, the relative cell number [16] was 91.6 ± 21, the relative cell number [17] was 80.8 ± 9.2 and the relative cell number [18] was 117 ± 58. For the same compound, the relative cell number [19] was 118 ± 23, the relative cell number [20] was 92.7 ± 46 and the relative cell number [21] was 80.1 ± 8.5. For the same compound, the relative cell number [22] was 100 ± 53, the relative cell number [23] was 113 ± 15 and the relative cell number [24] was 93.7 ± 18. The relative cell number [25] was 89.8 ± 23, the relative cell number (sgRNA knockout: sgXBP1, 10 nM) was 116 ± 37 and the relative cell number (sgRNA knockout: sgXBP1, 100 nM) was 129 ± 25. The relative cell number [26] was 83.3 ± 37 and the relative cell number [27] was 96 ± 6.

With C[C@@H](Oc1cc(-n2cnc3ccc(CN4CCN(C)CC4)cc32)sc1C(N)=O)c1ccccc1C(F)(F)F the relative cell number (sgRNA knockout: sgATF3, 10 nM) was 46.3 ± 4.7, the relative cell number (sgRNA knockout: sgATF3, 100 nM) was 13.8 ± 4.5 and the relative cell number [1] was 9.07 ± 3. For the same compound, the relative cell number [2] was 9.43 ± 1.6, the relative cell number (sgRNA knockout: sgATF4, 10 nM) was 42.4 ± 17 and the relative cell number (sgRNA knockout: sgATF4, 100 nM) was 12.6 ± 6.5. It also gave a relative cell number [3] of 15 ± 9.4, a relative cell number [4] of 12.9 ± 0.15 and a relative cell number (sgRNA knockout: sgATF6, 10 nM) of 43.5 ± 3.1. For the same compound, the relative cell number (sgRNA knockout: sgATF6, 100 nM) was 20 ± 5, the relative cell number [5] was 11.9 ± 6.6 and the relative cell number [6] was 9.22 ± 2.5. The relative cell number (sgRNA knockout: sgATG7, 10 nM) was 35.2 ± 4.9, the relative cell number (sgRNA knockout: sgATG7, 100 nM) was 12.7 ± 2.2 and the relative cell number [7] was 11.7 ± 1.3. For the same compound, the relative cell number [8] was 11.8 ± 3.4, the relative cell number (sgRNA knockout: sgERN1, 10 nM) was 44.2 ± 1.2 and the relative cell number (sgRNA knockout: sgERN1, 100 nM) was 11.1 ± 0.23. It also gave a relative cell number [9] of 8.85 ± 1.9, a relative cell number [10] of 16 ± 12 and a relative cell number (sgRNA knockout: sgHSF1, 10 nM) of 34.974 ± 0.0042. For the same compound, the relative cell number (sgRNA knockout: sgHSF1, 100 nM) was 12.2 ± 4.1, the relative cell number [11] was 14.7 ± 5.7 and the relative cell number [12] was 7.95 ± 3.4. The relative cell number (sgRNA knockout: sgHSF2, 10 nM) was 42.8 ± 4.9, the relative cell number (sgRNA knockout: sgHSF2, 100 nM) was 13 ± 3.7 and the relative cell number [13] was 14.8 ± 8.5. The relative cell number [14] was 12.9 ± 4.1, the relative cell number (sgRNA knockout: sgKEAP1, 10 nM) was 40.5 ± 4.8 and the relative cell number [15] was 17.6 ± 1. The relative cell number [16] was 11.9 ± 2, the relative cell number [17] was 13.1 ± 2.6 and the relative cell number [18] was 43.8 ± 5.5. The relative cell number [19] was 12.2 ± 3.1, the relative cell number [20] was 11.3 ± 6 and the relative cell number [21] was 10.2 ± 0.3. For the same compound, the relative cell number [22] was 40.6 ± 1.4, the relative cell number [23] was 18.6 ± 2.6 and the relative cell number [24] was 9.95 ± 6.2. The relative cell number [25] was 6.37 ± 1.9, the relative cell number (sgRNA knockout: sgXBP1, 10 nM) was 35.7 ± 6.8 and the relative cell number (sgRNA knockout: sgXBP1, 100 nM) was 18.5 ± 3.7. For the same compound, the relative cell number [26] was 14.2 ± 0.86 and the relative cell number [27] was 10.7 ± 0.26.

In the case of CNC(=O)c1cc(Oc2ccc(NC(=O)Nc3ccc(Cl)c(C(F)(F)F)c3)c(F)c2)ccn1 [Regorafenib], the relative cell number (sgRNA knockout: sgATF3, 10 nM) is reported as 115 ± 7.3, the relative cell number (sgRNA knockout: sgATF3, 100 nM) is reported as 89.5 ± 2.4 and the relative cell number [1] is reported as 102 ± 3.5. The relative cell number [2] was 34.3 ± 1.4, the relative cell number (sgRNA knockout: sgATF4, 10 nM) was 136 ± 26 and the relative cell number (sgRNA knockout: sgATF4, 100 nM) was 117 ± 21. The relative cell number [3] was 101 ± 31, the relative cell number [4] was 48.6 ± 21 and the relative cell number (sgRNA knockout: sgATF6, 10 nM) was 113 ± 25. It also gave a relative cell number (sgRNA knockout: sgATF6, 100 nM) of 87.5 ± 19, a relative cell number [5] of 87.7 ± 4.3 and a relative cell number [6] of 30.4 ± 9.8. It also gave a relative cell number (sgRNA knockout: sgATG7, 10 nM) of 102 ± 7.7, a relative cell number (sgRNA knockout: sgATG7, 100 nM) of 94.7 ± 3.1 and a relative cell number [7] of 90.8 ± 1.4. It also gave a relative cell number [8] of 35 ± 5.9, a relative cell number (sgRNA knockout: sgERN1, 10 nM) of 99.7 ± 11 and a relative cell number (sgRNA knockout: sgERN1, 100 nM) of 119 ± 0.17. It also gave a relative cell number [9] of 71.3 ± 3.4, a relative cell number [10] of 33.4 ± 6.7 and a relative cell number (sgRNA knockout: sgHSF1, 10 nM) of 127 ± 16. It also gave a relative cell number (sgRNA knockout: sgHSF1, 100 nM) of 84.4 ± 7.2, a relative cell number [11] of 73.1 ± 2.9 and a relative cell number [12] of 35 ± 4.4. The relative cell number (sgRNA knockout: sgHSF2, 10 nM) was 81.6 ± 6.6, the relative cell number (sgRNA knockout: sgHSF2, 100 nM) was 78.9 ± 6.8 and the relative cell number [13] was 77.4 ± 1.7. For the same compound, the relative cell number [14] was 43.7 ± 6.3, the relative cell number (sgRNA knockout: sgKEAP1, 10 nM) was 91.7 ± 10 and the relative cell number [15] was 81.9 ± 1. The relative cell number [16] was 72.9 ± 5.8, the relative cell number [17] was 30.8 ± 12 and the relative cell number [18] was 98 ± 11. The relative cell number [19] was 125 ± 13, the relative cell number [20] was 99.6 ± 9.7 and the relative cell number [21] was 39.2 ± 12. It also gave a relative cell number [22] of 120 ± 14, a relative cell number [23] of 103 ± 4.1 and a relative cell number [24] of 76.6 ± 7.6. It also gave a relative cell number [25] of 30.5 ± 8.2, a relative cell number (sgRNA knockout: sgXBP1, 10 nM) of 111 ± 10 and a relative cell number (sgRNA knockout: sgXBP1, 100 nM) of 82.4 ± 1.9. The relative cell number [26] was 89.7 ± 6.5 and the relative cell number [27] was 37.8 ± 16.
